In PMC12646323:
No constants are given. Whether binding was seen depends on the method and setting. For part of these data: In cells and extracts the contact can be indirect. Some binding calls cover weakened binding; strength is not graded here. Tags and fused reporters may be left off the sequences shown.

T1: HA-Mak16 (wild type, yeast) (yeast) (UniProt P10962)
T1 sequence: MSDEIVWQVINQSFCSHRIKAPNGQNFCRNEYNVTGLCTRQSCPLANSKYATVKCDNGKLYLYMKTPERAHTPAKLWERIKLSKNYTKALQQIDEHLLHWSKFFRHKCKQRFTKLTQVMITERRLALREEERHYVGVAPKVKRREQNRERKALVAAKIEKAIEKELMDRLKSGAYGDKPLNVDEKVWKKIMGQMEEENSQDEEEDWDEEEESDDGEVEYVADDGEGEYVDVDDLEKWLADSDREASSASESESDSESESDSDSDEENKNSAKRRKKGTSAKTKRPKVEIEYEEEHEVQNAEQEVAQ

T2: His-Mak16 (yeast, recombinant) (yeast) (UniProt P10962)
T2 sequence: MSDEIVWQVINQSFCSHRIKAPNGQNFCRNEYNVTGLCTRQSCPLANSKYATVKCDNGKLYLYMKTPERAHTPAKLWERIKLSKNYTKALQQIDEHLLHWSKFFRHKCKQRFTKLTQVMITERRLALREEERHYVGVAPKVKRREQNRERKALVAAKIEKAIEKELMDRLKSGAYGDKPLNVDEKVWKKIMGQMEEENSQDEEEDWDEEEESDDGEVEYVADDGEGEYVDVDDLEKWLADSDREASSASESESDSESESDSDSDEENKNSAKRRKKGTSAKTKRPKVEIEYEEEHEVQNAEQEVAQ


Assays:
[1] = biological target: T1, HA-Mak16 (wild type, yeast) (yeast); experiment: co-IP; reciprocal immunoprecipitation with HA or Myc beads from extracts of Gal-MAK16/Gal-RPF1 yeast grown 40 h on glucose (chromosomal Mak16 and Rpf1 depleted), western blot; also after treatment of the cells with DTT, paraquat, H2O2 or menadione
[2] = biological target: T2, His-Mak16 (yeast, recombinant) (yeast); experiment: co-purification after co-expression; N-terminally His6-tagged yeast Mak16 coexpressed with Rpf1 or Rpf1-Δ58 in E. coli, affinity purified; SDS-PAGE (Coomassie) and western blot

binding [1]	binding [2]	Binder
binds	–	Myc-Rpf1 (yeast) (protein, UniProt P38805 1-295) MALGNEINITNKLKRQEIFADIKHEKNKERHTMRRKRAKEERENPELREQRLKENVTQTIENTRVYDETINKEVEGDEDDLMRYFNSNSNEPPKIFLTTNVNAKKSAYEFANILIEILPNVTFVKRKFGYKLKEISDICIKRNFTDIVIINEDKKKVTGLTFIHLPEGPTFYFKLSSFVEVKKIVGHGRPTSHIPELILNNFQTRLGQTVGRLFQSILPQNPDIEGRQVITLHNQRDYIFFRRHRYVFKDNERVGLQELGPQFTLKLKRLQRGIKEETEWEHKPEMDKEKKKFYL
–	binds	Rpf1 (yeast, recombinant, coexpressed with His-Mak16) (protein, UniProt P38805 1-295) MALGNEINITNKLKRQEIFADIKHEKNKERHTMRRKRAKEERENPELREQRLKENVTQTIENTRVYDETINKEVEGDEDDLMRYFNSNSNEPPKIFLTTNVNAKKSAYEFANILIEILPNVTFVKRKFGYKLKEISDICIKRNFTDIVIINEDKKKVTGLTFIHLPEGPTFYFKLSSFVEVKKIVGHGRPTSHIPELILNNFQTRLGQTVGRLFQSILPQNPDIEGRQVITLHNQRDYIFFRRHRYVFKDNERVGLQELGPQFTLKLKRLQRGIKEETEWEHKPEMDKEKKKFYL
–	binds	Rpf1-Δ58 (yeast, recombinant, coexpressed with His-Mak16) (domain or fragment, UniProt P38805 59-295) TIENTRVYDETINKEVEGDEDDLMRYFNSNSNEPPKIFLTTNVNAKKSAYEFANILIEILPNVTFVKRKFGYKLKEISDICIKRNFTDIVIINEDKKKVTGLTFIHLPEGPTFYFKLSSFVEVKKIVGHGRPTSHIPELILNNFQTRLGQTVGRLFQSILPQNPDIEGRQVITLHNQRDYIFFRRHRYVFKDNERVGLQELGPQFTLKLKRLQRGIKEETEWEHKPEMDKEKKKFYL
